# Primary screen of a compound library

A: 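Growth of Mycobacterium tuberculosis over 3 days (7H9 medium with glucose and tyloxapol); the read-out is not stated. Tested at 500 µM. The record gives no direction; compounds that gave an IC50 in retests scored well above the rest, so higher reads as more growth inhibition. Of about 18,000 compounds tested this way, about 1,400 (7.9%) reached 50% or more in at least one test.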
B: 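Phenotypic screen: M. tuberculosis growth, cholesterol and DPPC medium, 4 days; the read-out is not stated. Compounds at 500 µM. The record gives no direction; compounds that gave an IC50 in retests scored well above the rest, so higher reads as more growth inhibition. About 18,000 compounds were tested under these conditions; 5% (about 900) showed 50% or more at least once.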

Each number is a percent effect as filed. How 0% and 100% were set is not recorded. Most values in the screen are low, and negative values occur. Compounds were drawn at random from those tested, without regard to their results.

Result for Cc1ccc2[nH]c(CO)nc2c1 was A: 2.901%; B: 8.077%.
Result for CCN(CCNC(=O)c1cscn1)C(=O)c1cscn1 was A: 7.441%; B: 0.3269%.
Result for c1ccc2c(c1)SCCC2NC1=NCCN1 (stereo unspecified) was A: 26.69%; B: 30.21%.
Result for CCC(C(=O)NCC1CCSCC1)N1CCCC1=O (stereo unspecified) was A: 9.99%; B: -1.792%.
Result for CC1CN(Cc2ccc(C#N)o2)C(C)(C)CO1 (stereo unspecified) was A: 13.06%; B: 11.58%.
Result for CC(C)COC1CCN(S(=O)(=O)N2CCCC2)CC1 was A: 27.82%; B: 5.16%.
Result for CC(C)CC1CCN(S(N)(=O)=O)C1 (stereo unspecified) was A: 51.74%; B: 47.06%.
Result for O=C(Nc1ccsc1)c1ccc2c(c1)C(=O)NC2=O was A: -23.07%; B: -15.38%.
Result for Cc1ccccc1CC(=O)NCC1(CO)CC1 was A: 2.012%; B: 7.058%.
Result for Cn1cc(CN2CCCC(CO)(CC3CC3)C2)cn1 (stereo unspecified) was A: 9.266%; B: 3.952%.
Result for CC(C#N)Sc1ccc(S(=O)(=O)N2CCCC2)cn1 (stereo unspecified) was A: -1.823%; B: -5.251%.
Result for CC(C)(C)c1cc(CO)no1 was A: 11.91%; B: -4.607%.
Result for O=C(C1CCCN1c1ccncc1Cl)N1CCSCC1 (stereo unspecified) was A: 22.8%; B: 4.762%.
Result for CNS(=O)(=O)C1CCCN(c2ncc(Cl)cn2)C1 (stereo unspecified) was A: -16.43%; B: -14.49%.
Result for CN(C)c1ccncc1N was A: 4.577%; B: 0.687%.
Result for C1CCC(COCCc2noc(C3CNC3)n2)C1 was A: 107.3%; B: 115.9%.
Result for CCOC(=O)CNC(C)(C)C was A: 5.67%; B: -2.206%.
Result for COc1ccc(C2CCN(CC(=O)NC(N)=O)C2)cc1 (stereo unspecified) was A: 65.05%; B: 32.73%.
Result for COC(=O)C(C)CS(=O)(=O)Nc1ccc(F)cc1 (stereo unspecified) was A: 47.55%; B: 42.67%.
Result for CN1CCCN(Cc2nc(C3CCOC3)no2)CC1 (stereo unspecified) was A: -2.574%; B: 3.264%.
Result for COC(=O)c1ccccc1S(=O)(=O)N1CCCCC1 was A: 43.96%; B: 30.56%.
Result for NC(=O)C1CCN(C(=O)Cc2ccsc2)CC1 was A: 0.387%; B: -34.68%.
Result for O=C(c1ccccc1F)N1CCNCC1 was A: -9.94%; B: -13.44%.
Result for COC(=O)CNc1ccc(Cl)cc1C(N)=O was A: 32.32%; B: 2.119%.
Result for OC1(CN2CCCC2)CCN(Cc2cccnc2)CC1 was A: 8.494%; B: 4.976%.
Result for NC(=O)C(c1ccccc1)N1CCC2(CC1)OCCO2 (stereo unspecified) was A: 11.36%; B: 13.82%.
Result for CC(=O)N1CCC(c2nc(C(C)(C)C)no2)C1 (stereo unspecified) was A: 6.211%; B: 8.664%.
Result for Cc1cc(C(=O)NCc2ccccn2)[nH]n1 was A: -3.122%; B: 5.781%.
Result for COc1cccc(SCC(=O)NC2CC(=O)N(C)C2)c1 (stereo unspecified) was A: -8.333%; B: 1.057%.
Result for COCCCOc1cnc(C#N)cn1 was A: 18.83%; B: 2.126%.
Result for COCC1CCCCNC1 (stereo unspecified) was A: 9.703%; B: 1.679%.
Result for NCc1nnc(N)o1 was A: -1.742%; B: -8.983%.
Result for NCC1CC(=O)N(Cc2ccccc2)C1 (stereo unspecified) was A: -0.396%; B: 6.875%.
Result for CS(=O)(=O)CCC(=O)Nc1cccc(F)c1C#N was A: 0.05173%; B: -3.848%.
Result for CC(C)CCn1c(CO)cnc1S(=O)(=O)CC(C)C was A: 24.56%; B: 17.64%.
Result for OC1CCCN(Cc2nc(-c3ccsc3)no2)C1 (stereo unspecified) was A: -0.2823%; B: -11.66%.
Result for COCCn1cnnc1SCC(=O)NCC(F)(F)F was A: 10.39%; B: -14.29%.
Result for NC(=O)COc1cccc(NC(=O)CSC(F)(F)F)c1 was A: 25.37%; B: 3.749%.
Result for Cn1cc(C(O)CN)cn1 (stereo unspecified) was A: 0.4641%; B: -1.332%.

The last 5 entries again:

CC(C)CCn1c(CO)cnc1S(=O)(=O)CC(C)C gave A: 24.56%; B: 17.64%.
OC1CCCN(Cc2nc(-c3ccsc3)no2)C1 (stereo unspecified) gave A: -0.2823%; B: -11.66%.
COCCn1cnnc1SCC(=O)NCC(F)(F)F gave A: 10.39%; B: -14.29%.
NC(=O)COc1cccc(NC(=O)CSC(F)(F)F)c1 gave A: 25.37%; B: 3.749%.
Cn1cc(C(O)CN)cn1 (stereo unspecified) gave A: 0.4641%; B: -1.332%.

Measurements from “University of Dundee, Small-Polar-MMV Screening Library” (2021), ChEMBL document CHEMBL3988442.